Results: patent US9926581B2, “Fagopyritol synthase genes and uses thereof” (Cornell Research Foundation, Inc., priority 2002, dated 2018)
Values joined by “and” are separate entries in the source; they are usually repeats but may differ in a detail not shown here. Equal entries are not always repeated.

Columns and labels:
soybean explants [1] = experiment: Soybean explant feeding with 50 mM free cyclitols for one week, soluble carbohydrates in mature seeds; type: in vivo, Glycine max (L.) Merrill cv. Chippewa 64
buckwheat embryos = experiment: Soluble carbohydrates in buckwheat embryos from seeds matured at 15, 22 or 30° C.; type: in vivo, Fagopyrum esculentum Moench; conditions: for Soluble carbohydrates in buckwheat embryos: harvested at 28 DAP and dried 2 weeks at 12% RH, mean ± SE
buckwheat explants = experiment: Buckwheat explant feeding with 100 mM cyclitol in 1% sucrose for 5 days, soluble carbohydrates in embryos and leaf disks; type: in vivo, Fagopyrum esculentum; conditions: replicate values
soybean explants [2] = experiment: Soybean explant feeding 3 days with 50 mM cyclitol in 1% sucrose, slow drying time course, soluble carbohydrates in axis, cotyledon, seed coat and leaf
[3] = 3 days transport of sucrose (1%) and D-chiro-inositol (50 mM), after 2 days slow drying, Rep 1
[4] = 3 days transport of sucrose (1%) and D-chiro-inositol (50 mM), after 2 days slow drying, Rep 2
[5] = 3 days transport of sucrose (1%) and D-chiro-inositol (50 mM), after 4 days slow drying, Rep 1
[6] = 3 days transport of sucrose (1%) and D-chiro-inositol (50 mM), after 4 days slow drying, Rep 2
[7] = 3 days transport of sucrose (1%) and D-chiro-inositol (50 mM), after 14 days slow drying, Rep 1
[8] = 3 days transport of sucrose (1%) and D-chiro-inositol (50 mM), after 14 days slow drying, Rep 2
[9] = 3 days transport of sucrose (1%) and D-chiro-inositol (50 mM), before slow drying, Rep 1
[10] = 3 days transport of sucrose (1%) and D-chiro-inositol (50 mM), before slow drying, Rep 2
[11] = 3 days transport of sucrose (1%) and D-pinitol (50 mM), after 2 days slow drying, Rep 1
[12] = 3 days transport of sucrose (1%) and D-pinitol (50 mM), after 2 days slow drying, Rep 2
[13] = 3 days transport of sucrose (1%) and D-pinitol (50 mM), after 4 days slow drying, Rep 1

`OCC1O[C@H](OCC2O[C@H](OC3C(O)[C@H](O)C(O)[C@H](O)[C@@H]3O)C(O)[C@H](O)[C@H]2O)C(O)[C@H](O)[C@H]1O` (stereo partly drawn) [α-D-galactopyranosyl-(1→6)-α-D-galactopyranosyl-(1→2)-1D-chiro-inositol] was tested. Which “increase after feeding 50 mM D-chiro-inositol to explants” value (soybean explants [1]; axis tissues) did it give?
The value was 11 fold.

What about the “increase after feeding 50 mM D-chiro-inositol to explants” value (soybean explants [1]; cotyledon tissues) of the same compound?
The value was 10 fold.

What about the “content in embryos of seeds matured at 30° C. relative to 15° C.” value (buckwheat embryos; after 2 weeks of drying of seeds) of the same compound?
Its value is ~8 times.

And the “Soluble carbohydrates in buckwheat embryos” value (buckwheat embryos; seeds matured at 15° C.)?
The value was 2.47 ± 0.74 μg/embryo.

And the “Soluble carbohydrates in buckwheat embryos” value (buckwheat embryos; seeds matured at 22° C.)?
The value was 12.98 ± 3.59 μg/embryo.

What about the “Soluble carbohydrates in buckwheat embryos” value (buckwheat embryos; seeds matured at 30° C.) of the same compound?
The value was 19.70 ± 1.74 μg/embryo.

And the “Soluble carbohydrates in embryos of seeds from buckwheat explants” value (“Soluble carbohydrates in embryos” below) (buckwheat explants; fed 100 mM D-chiro-inositol in 1% sucrose solution 5 days, 2 days slow drying)?
Its value is 5.51 μg/embryo and 3.45 μg/embryo.

What about the “Soluble carbohydrates in embryos” value (buckwheat explants; fed 100 mM D-chiro-inositol in 1% sucrose solution 5 days, 4 days slow drying) of the same compound?
The value was 3.95 μg/embryo and 2.83 μg/embryo and 1.57 μg/embryo.

What about the “Soluble carbohydrates in embryos” value (buckwheat explants; fed 100 mM D-chiro-inositol in 1% sucrose solution 5 days, 7 days slow drying) of the same compound?
Its value is 2.28 μg/embryo and 0.91 μg/embryo and 1.99 μg/embryo.

What about the “Soluble carbohydrates in embryos” value (buckwheat explants; fed 100 mM D-chiro-inositol in 1% sucrose solution, after 1 day feeding) of the same compound?
Its value is 0 μg/embryo.

And the “Soluble carbohydrates in embryos” value (buckwheat explants; fed 100 mM D-chiro-inositol in 1% sucrose solution, after 5 days feeding)?
Its value is 0 μg/embryo and 5.48 μg/embryo and 1.72 μg/embryo.

And the “Soluble carbohydrates in embryos” value (buckwheat explants; fed 100 mM D-pinitol in 1% sucrose solution 5 days, 2 days slow drying)?
Its value is 0 μg/embryo and 6.69 μg/embryo and 4.98 μg/embryo.

What about the “Soluble carbohydrates in embryos” value (buckwheat explants; fed 100 mM D-pinitol in 1% sucrose solution 5 days, 4 days slow drying) of the same compound?
Its value is 5.70 μg/embryo and 4.29 μg/embryo and 4.46 μg/embryo.

And the “Soluble carbohydrates in embryos” value (buckwheat explants; fed 100 mM D-pinitol in 1% sucrose solution 5 days, 7 days slow drying)?
Its value is 1.60 μg/embryo and 0.48 μg/embryo and 2.47 μg/embryo.

And the “Soluble carbohydrates in embryos” value (buckwheat explants; fed 100 mM D-pinitol in 1% sucrose solution, after 1 day feeding)?
Its value is 0 μg/embryo.

What about the “Soluble carbohydrates in embryos” value (buckwheat explants; fed 100 mM D-pinitol in 1% sucrose solution, after 5 days feeding) of the same compound?
The value was 0 μg/embryo.

And the “Soluble carbohydrates in embryos” value (buckwheat explants; fed 100 mM myo-inositol in 1% sucrose solution 5 days, 2 days slow drying)?
Its value is 35.81 μg/embryo and 3.22 μg/embryo.

What about the “Soluble carbohydrates in embryos” value (buckwheat explants; fed 100 mM myo-inositol in 1% sucrose solution 5 days, 4 days slow drying) of the same compound?
Its value is 13.37 μg/embryo and 3.31 μg/embryo.

What about the “Soluble carbohydrates in embryos” value (buckwheat explants; fed 100 mM myo-inositol in 1% sucrose solution 5 days, 7 days slow drying) of the same compound?
The value was 3.53 μg/embryo and 2.57 μg/embryo.

And the “Soluble carbohydrates in embryos” value (buckwheat explants; fed 100 mM myo-inositol in 1% sucrose solution, after 1 day feeding)?
Its value is 0 μg/embryo.

What about the “Soluble carbohydrates in embryos” value (buckwheat explants; fed 100 mM myo-inositol in 1% sucrose solution, after 5 days feeding) of the same compound?
The value was 1.62 μg/embryo and 0 μg/embryo.

And the “Soluble carbohydrates in embryos” value (buckwheat explants; fed 1% sucrose (without cyclitols) solution 5 days, 2 days slow drying)?
The value was 0.66 μg/embryo and 10.83 μg/embryo and 4.39 μg/embryo.

What about the “Soluble carbohydrates in embryos” value (buckwheat explants; fed 1% sucrose (without cyclitols) solution 5 days, 4 days slow drying) of the same compound?
The value was 11.05 μg/embryo and 5.72 μg/embryo.

And the “Soluble carbohydrates in embryos” value (buckwheat explants; fed 1% sucrose (without cyclitols) solution 5 days, 7 days slow drying)?
Its value is 7.65 μg/embryo and 6.34 μg/embryo.

What about the “Soluble carbohydrates in embryos” value (buckwheat explants; fed 1% sucrose (without cyclitols) solution, after 5 days feeding) of the same compound?
The value was 0 μg/embryo and 6.72 μg/embryo.

And the “Accumulation of soluble carbohydrates in soybean axis” value (from here on “Accumulation … in soybean axis”) (soybean explants [2]; [3])?
Its value is 0 μg/axis.

And the “Accumulation of soluble carbohydrates in soybean cotyledon” value (“Accumulation … in soybean cotyledon” for short) (soybean explants [2]; [3])?
Its value is 0 μg/cotyledon.

What about the “Accumulation of soluble carbohydrates in soybean seed coat” value (from here on “Accumulation … in soybean seed coat”) (soybean explants [2]; [3]) of the same compound?
Its value is 0 μg/seed coat.

And the “Accumulation … in soybean axis” value (soybean explants [2]; [4])?
The value was 0 μg/axis.

What about the “Accumulation … in soybean cotyledon” value (soybean explants [2]; [4]) of the same compound?
The value was 4.57 μg/cotyledon.

And the “Accumulation … in soybean seed coat” value (soybean explants [2]; [4])?
Its value is 0 μg/seed coat.

What about the “Accumulation … in soybean axis” value (soybean explants [2]; [5]) of the same compound?
The value was 0 μg/axis.

What about the “Accumulation … in soybean cotyledon” value (soybean explants [2]; [5]) of the same compound?
The value was 12.10 μg/cotyledon.

What about the “Accumulation … in soybean seed coat” value (soybean explants [2]; [5]) of the same compound?
Its value is 0 μg/seed coat.

What about the “Accumulation … in soybean axis” value (soybean explants [2]; [6]) of the same compound?
Its value is 1.72 μg/axis.

And the “Accumulation … in soybean cotyledon” value (soybean explants [2]; [6])?
Its value is 11.12 μg/cotyledon.

And the “Accumulation … in soybean seed coat” value (soybean explants [2]; [6])?
The value was 0 μg/seed coat.

And the “Accumulation … in soybean axis” value (soybean explants [2]; [7])?
Its value is 2.07 μg/axis.

And the “Accumulation … in soybean cotyledon” value (soybean explants [2]; [7])?
Its value is 23.98 μg/cotyledon.

What about the “Accumulation … in soybean seed coat” value (soybean explants [2]; [7]) of the same compound?
Its value is 0 μg/seed coat.

What about the “Accumulation … in soybean axis” value (soybean explants [2]; [8]) of the same compound?
The value was 0 μg/axis.

And the “Accumulation … in soybean cotyledon” value (soybean explants [2]; [8])?
The value was 22.70 μg/cotyledon.

What about the “Accumulation … in soybean seed coat” value (soybean explants [2]; [8]) of the same compound?
The value was 1.35 μg/seed coat.

And the “Accumulation … in soybean axis” value (soybean explants [2]; [9])?
Its value is 0 μg/axis.

And the “Accumulation … in soybean cotyledon” value (soybean explants [2]; [9])?
Its value is 0 μg/cotyledon.

And the “Accumulation … in soybean axis” value (soybean explants [2]; [10])?
The value was 0 μg/axis.

What about the “Accumulation … in soybean cotyledon” value (soybean explants [2]; [10]) of the same compound?
Its value is 0 μg/cotyledon.

What about the “Accumulation … in soybean axis” value (soybean explants [2]; [11]) of the same compound?
Its value is 0 μg/axis.

And the “Accumulation … in soybean cotyledon” value (soybean explants [2]; [11])?
Its value is 4.91 μg/cotyledon.

What about the “Accumulation … in soybean seed coat” value (soybean explants [2]; [11]) of the same compound?
The value was 0 μg/seed coat.

And the “Accumulation … in soybean axis” value (soybean explants [2]; [12])?
Its value is 0 μg/axis.

And the “Accumulation … in soybean cotyledon” value (soybean explants [2]; [12])?
Its value is 0 μg/cotyledon.

And the “Accumulation … in soybean seed coat” value (soybean explants [2]; [12])?
The value was 0 μg/seed coat.

And the “Accumulation … in soybean axis” value (soybean explants [2]; [13])?
Its value is 0 μg/axis.

What about the “Accumulation … in soybean cotyledon” value (soybean explants [2]; [13]) of the same compound?
Its value is 15.04 μg/cotyledon.

And the “Accumulation … in soybean seed coat” value (soybean explants [2]; [13])?
The value was 0 μg/seed coat.
